Data as given in patent publication US10945938B2, “Lactone-containing compositions for malodor elimination” (Takasago International Corporation, priority 2014, dated 2021).
At least one compound was matched to its structure with a doubt left.

Assay: Methyl mercaptan suppression analysis by GC-PFPD, non-aqueous (ethanol) conditions (Examples 5-9)
Excerpt: Methyl mercaptan suppression analysis was used to evaluate malodor elimination effects of the compounds. Methyl mercaptan is known to be a major oral malodor material. For example, methyl mercaptan is found in the oral cavity of halitosis patients and also found in malodor producing food products (e.g., garlic). A multipurpose sampler (MPS 2, Gerstel Inc, Baltimore Md.)—Gas Chromatography (6890N, Agilent Technologies Inc, Wilmington Del.) with the Pulsed Flame Photometric Detector (PFPD, model 5380, OI Analytical, College Station, Tx) was used for the methyl mercaptan analysis. 0.5% (w/v) sodium thiomethoxide, which is a sodium salt of methyl mercaptan (purchased from Aldrich chemical company, Inc. Allentown, Pa.) in deionized water was used as the methyl mercaptan stock solution, which was freshly prepared for every test day.
For the screening test, 100 ppm lactone (20 μl of 0.5% of lactone in 200 proof ethanol (w/v)), 300 ppm lactone (30 μl of 1% of lactone in 200 proof ethanol (w/v)), 200 ppm phenolic compound (20 μl of 1% of phenolic compound in 200 proof ethanol (w/v)) and 300 ppm phenolic compound (30 μl of 1% of phenolic compound in 200 proof ethanol (w/v)) were tested. […]
Malodor (methyl mercaptan) suppression was calculated as follows: Malodor (methyl mercaptan) Suppression (%)=(GC area of blank control sample−GC area of test sample)/GC area of blank control sample×100.

With `CC1=C(O)C(=O)C(C)O1` (centres unmarked) [furaneol, reference compound] the “Methyl Mercaptan Suppression (%)” value (200 ppm test compound alone, 200 proof ethanol, 10 ppm methyl mercaptan sodium salt, room temperature 2 hours, values of several testing sets) was 2% and the “synergistic malodor suppression or elimination effect of the combination with a phenolic compound (in words)” value (ethanol conditions, combination compared with additive effect of single components) was “do not exhibit a synergistic malodor elimination effect when combined with phenolic compounds”.
